# Source: PubChem BioAssay AID1347426 (Functional Genomics Laboratory (NCATS/FGL), 2020)
# In all, about 31,000 sequences went through this assay and about 1,400 (4.5%) were called active.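 The calls were made as follows: active = median seed-adjusted z-score above 1 or below -1; inactive = the rest.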 The list shows a part of the results.
# Assay: Novel Modifiers of Survival Motor Neuron (SMN) Protein: Gene Identification via Genome-wide siRNA Screen;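 also: luminescence tracks full-length SMN protein made from the SMN2 reporter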
# Settings: HEK293T SMN2-luciferase reporter, siRNA knockdown, 72 h; actives lie on both sides
# Method in brief: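 Genome-wide siRNA screen (10418 genes, 3 siRNAs each, 1 pmol per well) by reverse transfection in HEK293T cells stably carrying an SMN2-luciferase reporter; luminescence after 72 hours, normalized to negative-control siRNA, log10-transformed, MAD-scored.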
row,Sequence,median seed-adjusted z-score
1,GCAGAUCGGAGUCAAGUCATT against AP2A1,inactive: 0.559
2,CAAGCCCUCUGAAACAGUUTT against ADRA1A,active: -1.06
3,ACAUGUUCCUCACCUUAAATT against SLC6A1,inactive: -0.122
4,GGAUUCGGUUUAUGCUAGATT against NOM1,inactive: 0.00828
5,CCGGUGACUUCCACAAGAATT against TNFRSF25,inactive: -0.534
6,GCGGGACAGAAGUUAGAUATT against HCCS,inactive: 0.00254
7,GCAUCCUGUCGGCUCACAATT against PYCR2,inactive: 0.00371
8,GAUUCUUCCCGGCAUCAUATT against GUCY1A3,inactive: 0.187
9,GCACGUCUUUCCCAGCAUATT against SLC26A9,inactive: 0.223
10,GCUAUUUGGUUAUCCUUAUTT against ATP6V0A1,inactive: 0.103
11,GAAUCAAGAAUGAUACCGATT against GRK4,inactive: -0.267
12,GCUGCUGAAAGAUAUGAAATT against SPCS3,inactive: 0.417
13,GGAUGGGAGCAAAUACUGATT against PRDM16,inactive: 0.185
14,CUGCGGACGGAAUCCUAUATT against TYMP,inactive: -0.249
15,CUGUCCACCCGGAAUGAAATT against COL9A2,inactive: 0.0208
16,CUACGAAUCUACUAACUGUTT against ZNF597,inactive: 0.366
17,ACAUCGAGGAGCUCAUGAATT against TNNC1,inactive: 0.442
18,GGAAAAUCUGCAACAGUUATT against STX12,inactive: -0.797
19,GCUCAGGCCUUAUUAGACATT against ZFP3,inactive: 0
20,GCAGUACAAAGGGAUCAUUTT against SLC25A4,inactive: -0.379
21,GCCUUGCUGAAGUCGCUCATT against CDIPT,inactive: 0.303
22,GCUCAAUUCUGCAAAGAGATT against GART,inactive: -0.414

row,Sequence,median seed-adjusted z-score
1,GAAGGAUCCUGAGCACGUATT against NR2E3,inactive: -0.184
2,GGGUUGGAAAGGAUUCUCATT against GSN,inactive: -0.222
3,CGGUCUCACCUGCACCAAATT against SSPO,inactive: 0.397
4,UGACGGAGAUGUUUCCGGATT against TOMM22,inactive: 0.486
5,UCAGCAAUUUGAAUGAGAATT against PPP1R1B,inactive: -0.354
6,GCCUAGCACUAGCACAAGUTT against RBM5,inactive: -0.289
7,CGAGGUUUCGCUCACCAAATT against USP35,inactive: -0.219
8,CAAACCAUCGUAUCACUGATT against PPP2R5B,inactive: 0.237
9,GCUGUGACAUGGACCAGUUTT against LRP1,inactive: -0.781
10,CCUUGUGAUUUUUACCAUUTT against F2RL2,inactive: -0.216
11,GAAGGAAUCUUGACGGAAATT against CRADD,inactive: -0.255
12,CGUCCAUAGUUGAUCUAAUTT against SOCS6,inactive: 0.359
13,GACCCAUGGUAAAAUGCAATT against TWIST1,inactive: -0.159
14,GGUUAUUGGUCAGUUAUGATT against GLRB,inactive: 0.0713
15,UGAUGAUAUUGCCACAUACTT against SSX1,inactive: 0.0114
16,GGAACCAGAUCAUAAGGGATT against MAP2K1,inactive: 0.942
17,CGUUACCAGCAUCACUCUATT against FOXF2,inactive: -0.608
18,UCAUAACAGGGAUCAUGAATT against GSTK1,inactive: 0.234
19,GGAUUACAUGAGUAAGCAATT against HPGD,inactive: -0.145
20,GCAGUGGACAUAGAAGAGATT against 4-Sep,inactive: -0.0124
21,CAUGCGGUCUUAGAAAUGATT against HNRPUL1,inactive: -0.047
22,CCACGUCCAUCAUCCAGCATT against NFIX,inactive: 0.481

row,Sequence,median seed-adjusted z-score
1,GCUGUAACCUGUUCCUAUUTT against CALML3,inactive: 0
2,GCCUUUACCUGUUCCGAGUTT against PTPRG,inactive: 0.0697
3,GGAUCCUUAUGUGCACAAATT against ACE2,inactive: -0.164
4,GCAUUGGGAUUGAAGUCCATT against ARHGAP18,inactive: 0
5,GCUCCUUGAUAUUUUAGAATT against HUNK,inactive: -0.183
6,CAUGGGACCUGAUUCAAGATT against FCER2,active: -1.75
7,GCAUUGAUGACUUAGAAGATT against TPM1,inactive: 0.659
8,GCAAUAACAGCGUACCUAATT against CRIM1,inactive: -0.155
9,GGUCAUCAUUUGAUAUAUATT against TFB2M,inactive: 0.206
10,GCAUCGACAUGUCCUGGGATT against PUF60,active: 2.26
11,GCAGAGCUACCUAAAGGGATT against CGREF1,inactive: 0.0743
12,CUCCUGCCUUGAGCCCUUATT against GFRA4,active: -1.59
13,CGGACGUGAUUGAGAUGAATT against ABR,inactive: 0.314
14,GAAUUUAGUCCAUACGAAATT against PLA2G4A,inactive: 0.608
15,GGUUAAUAUUGCGAAAGUATT against TXNDC1,inactive: 0.458
16,CAUGAUCAAUGCUGACUUUTT against RHBG,inactive: -0.126
17,GGAACUGAAUUCAUGGACATT against XRN2,inactive: -0.312
18,GGAACAUCCUCCAUCAGAATT against MLYCD,inactive: -0.154
19,GGCAAGUAAUUAAACUGCATT against STAP1,inactive: 0
20,CAUCUUGAAGUCUUAUUAATT against MYOCD,inactive: -0.121
21,CUACUGAUGUUGUUGAUAATT against MAPK6,inactive: -0.156
22,GCAAUUCUGACGACAAUAUTT against KCTD10,inactive: -0.506

row,Sequence,median seed-adjusted z-score
1,UGGUUGCACCAGAUAAAGATT against DYNLRB1,inactive: -0.58
2,AGCAGAAGAAGUUCAAAUATT against P2RX1,inactive: 0.908
3,CCACGCGUCCUACUACAAATT against PSMD13,inactive: 0.58
4,AGCUUUCAGUUGUCUCAGUTT against ZNF124,inactive: -0.487
5,CCUUCUACAACACCAAGAATT against AGPAT2,inactive: 0.38
6,UUACUAUGGUUAUUUCAUATT against BDNF,inactive: 0
7,CAGACCAUGGACAACCAUATT against GSTM1,inactive: -0.55
8,GCUCAUACCUGGUACCUAUTT against FOXM1,inactive: -0.399
9,CAAGAUGGUUGGUCACCAATT against CFHR4,inactive: -0.0972
10,CUCUCCUCACGUGCAGUAATT against PRSS1,inactive: -0.0208
11,GAAGGAUGCUUUCGAUAAATT against PDCD6IP,inactive: 0
12,ACUCCUACAUGUACAUUCUTT against KCNE3,active: -1.33
13,GGCUCAAUAUGGAGGAUUATT against NPR3,inactive: -0.436
14,GCACCCACGUCAUCCCUAATT against GRIN1,inactive: -0.137
15,CCUUCGACAUUGCUGAGGATT against MBD3,inactive: 0.708
16,CAAUCAUCUCAGUGGCGAATT against TIGD5,inactive: 0
17,GCCUAUUUCUUACCAACUUTT against PECAM1,inactive: 0.0717
18,GAGUGCACACUUAAGGAGATT against TCF7,inactive: -0.338
19,GGGACAACAUCUUCCGAAATT against RRAGB,inactive: 0
20,GUGUGAGGCUUUUACUUCUTT against LRTM1,inactive: 0.492
21,ACAUGGAUAUGGAAUCUGUTT against 8-Mar,inactive: -0.106
22,GCAAUGACAAAGUAUCUAATT against HSD17B3,inactive: 0.734

row,Sequence,median seed-adjusted z-score
1,GGAUCGGGUUCUAAAGGAATT against HSPE1,inactive: 0.0101
2,CCAGCAUUCUUGAUCGAGATT against DSG2,inactive: -0.285
3,GGAUUUGCCGAAUUAACAATT against RELB,active: 1.16
4,GGCUACAAAUGGGUAAAGATT against ALG5,inactive: 0.286
5,AACUCAUUGUGAAUAAGAATT against GPR110,inactive: 0.0158
6,GAGGUUUCAUCAUUGCGGATT against TGM4,inactive: -0.43
7,GAAACGAUGAAAUAAGAUATT against PTGS1,inactive: 0.0458
8,GUUUAUGACGGGUACGAAATT against ECE2,inactive: 0.794
9,GCUGUAUCCUCAUAGGAAATT against HES5,inactive: -0.00853
10,CAACAGUUGUACUACUGAATT against RIOK3,inactive: 0.0267
11,AAACACUACUCGCACCAGATT against HES3,inactive: 0.284
12,GAUACGCCCUUAUAAUGCATT against ZBTB11,inactive: -0.105
13,GCUUCGAAUUCACAAGUGUTT against SULF1,inactive: -0.128
14,GGACAUGCUUCACAAUCGATT against MYH15,inactive: -0.939
15,CCAUGGAUCACAACCGGAATT against AKAP8L,inactive: -0.334
16,GAUGCUGACUUAGAAGAAATT against RFPL4B,inactive: 0.92
17,CCAUCAAGGUCCAACCAGUTT against FREM3,inactive: -0.565
18,GACAGGCCUUGGUCAAAAATT against CCND3,inactive: -0.965
19,GGACUGAACCUGCAUACCATT against ARL3,inactive: 0.551
20,GGAUACUGGGUAGAAAAUATT against ATG4B,inactive: -0.703

# Retrieved one by one from above, 4 records:
row,Sequence,median seed-adjusted z-score
10,CCUUGUGAUUUUUACCAUUTT against F2RL2,inactive: -0.216
5,UCAGCAAUUUGAAUGAGAATT against PPP1R1B,inactive: -0.354
1,GGAUCGGGUUCUAAAGGAATT against HSPE1,inactive: 0.0101
12,GAUACGCCCUUAUAAUGCATT against ZBTB11,inactive: -0.105
